Results from the supplement of paper PMC5949888.
± gives the standard deviation of the averaged measurements. Most values lie at the floor of the assay. Slopes are relative: functional sequences can read slightly below zero.

Test system: Saccharomyces cerevisiae PS128 hsf1 delta, HSF1(1-493) fusion
Test: growth estimate (transactivation domain function in HSF1 fusion, heat-shock survival) (a.u. (slope of normalised read count over time)); higher = stronger growth at 37°C, i.e. more transactivation activity
Conditions: library: random library

Row | Substance | growth estimate
1 | QVILQGTRDTTVG | < -0.25
2 | FCWADPLLWSFAYSRSPCSE | -0.164
3 | PIRGIWNSDRPNSVP | < -0.25
4 | ATFSARGSRINHLRRL | < -0.25
5 | GNC | < -0.25
6 | LTTRRGKPIRRKKVIMFNQR | < -0.25
7 | PHHLARLAYNDDWRRLHGEI | < -0.25
8 | KESFHTEGNRAESAHRAGDV | < -0.25
9 | ATEACWSSSCSEAEVSYNQT | < -0.25
10 | INDCSVARSPEAHMRLHKTS | < -0.25
11 | GFVWEHVGRALHGCQ | < -0.25
12 | AQTYESRASGLLGTDDSSLA | < -0.25
13 | LTGERLVGRRLAY | < -0.25
14 | RKGTAGNGKS | < -0.25
15 | SYGYTSD | < -0.25
16 | TLLYVIDSQECGCGGYDLIG | < -0.25
17 | TPSPIASDKVIVRTLHYPN | < -0.25
18 | WGVRLCMPNKLLAFPVRGQ | -0.243
19 | VRRKSLLSAWNSVHQMPHPM | < -0.25
20 | HAYLPQA | < -0.25
21 | TSVCCRVTSASWANYSLAYD | -0.25
22 | VAARRVVPAIVKGATTPLYS | < -0.25
23 | IRNMPLGETRSRRSGGP | < -0.25
24 | STAYI | < -0.25
25 | RVSPRRTEEHQTGAIARCQA | < -0.25
26 | WPPERSWG | -0.203

Row | Substance | growth estimate
27 | SLRLDTDFRRGSITE | < -0.25
28 | MQERG | < -0.25
29 | AQLLGSH | < -0.25
30 | HLLNPPSMAYLKRWDLSR | -0.207
31 | GRFAPRSIDLLQNPSQSSA | < -0.25
32 | VGIV | < -0.25
33 | LLGTEAGLAGPGRTTHLMVA | < -0.25
34 | CLLVLTELKRTT | < -0.25
35 | YGLSGIGNSTRRLGGPITTR | < -0.25
36 | PNSDMRSAHLSPPCPVSTVL | < -0.25
37 | RLTMPMNLDGCF | < -0.25
38 | WRGLHAG | < -0.25
39 | GPKGVSGRKE | -0.246
40 | ARHFNENYTDGLAWKSWELT | < -0.25
41 | TTGG | < -0.25
42 | RIVRPSGRGILIPPGFTGRV | < -0.25
43 | KLRHVLALPGTSPEGSSCRP | < -0.25
44 | YSLWMS | < -0.25
45 | NSLTVVFEPVGVGRTIANQG | < -0.25
46 | KSTW | < -0.25
47 | EVLWRMSNDSLAFSVPRAHP | -0.248
48 | LDPDQVHVLASLKIVISECS | < -0.25
49 | GINLFKVRYMRARTCNAKPD | < -0.25
50 | KSKSSRIRCGLRGS | < -0.25
51 | RCGLARRTGYVVVVGARRLG | < -0.25
52 | VAMTAS | < -0.25

Row | Substance | growth estimate
53 | LVGYRHSILFTFLANRCIRA | < -0.25
54 | WLNPAGGVPIDQFSLRFIIT | < -0.25
55 | PSVFSPGDQSRTGGV | < -0.25
56 | IRIA | < -0.25
57 | VWERAKSYACFVNWSSKKLL | < -0.25
58 | EHRACATHIELLVLFQRCTS | < -0.25
59 | FMVNLSDWCIQDVYGGAMSL | < -0.25
60 | RDK | < -0.25
61 | RAVPQMTHTMALYNHRFF | < -0.25
62 | GSSWGTQSC | < -0.25
63 | LLLRDVRKAPSRKDAGATYV | < -0.25
64 | HVYESSICQTSTAHF | < -0.25
65 | WNGQARPRLRL | < -0.25
66 | VGVGVLDNKIYVSPQRSRGS | < -0.25
67 | AVESPCGDKLWFARVI | < -0.25
68 | ESGELALSISVRVA | < -0.25
69 | PRYVLFNCLCRHS | < -0.25
70 | NLTMR | < -0.25
71 | LKTEIWARDLGPSIFDVQPP | < -0.25
72 | PNVCSTMGTAIFYARCGIRV | < -0.25
73 | LLELSRRSKQSRNG | < -0.25
74 | TKMTIGER | < -0.25
75 | TDGGSNV | < -0.25
76 | LRTECGKCSLRISPIVLLRR | < -0.25
77 | AGKEDFLGLSSRNPVS | < -0.25
78 | RRNFWFVGPIHLSILASPQH | < -0.25

Row | Substance | growth estimate
79 | SCHRGRPN | < -0.25
80 | TSQPLGAWNEQQVLDTSRAP | < -0.25
81 | FSLQSWGGSESRTLEVRLLA | < -0.25
82 | GCGIGAPAVAVGSHLFKAGV | < -0.25
83 | SLVEFGFALESGPQALESPV | < -0.25
84 | VGRTDTMRFGPGLRC | < -0.25
85 | CQKTFCLKASELGVASAPSC | < -0.25
86 | DLTYCQTGSSWLINRRLWGW | < -0.25
87 | FKHQ | < -0.25
88 | LTRRFGTLGGGVGVSMTWGN | < -0.25
89 | DRPRGQKQVPG | < -0.25
90 | VRVP | < -0.25
91 | IVC | < -0.25
92 | RTVEIILGREPVKAGTGPPF | < -0.25
93 | FLMRKK | < -0.25
94 | PWGIYSYWN | < -0.25
95 | SYFHCPITRFVRMTLFQFTS | < -0.25
96 | TAILSPVRNRSLCPLRSLIL | < -0.25
97 | NGVRAVR | < -0.25
98 | GILFAALDSPGAELRIVTSC | < -0.25
99 | RVFCEECRQHRAHPRQNFID | < -0.25
100 | RVEDRVPPDLRDHVFLAKPS | < -0.25
101 | YFQGKPHTRK | -0.243
102 | PQKTKAYGTA | < -0.25
103 | VELKVIFPLTALCCVNGTWN | < -0.25
104 | QQM | < -0.25

Some of the entries above, reformatted.

| Row | Substance | growth estimate |
| --- | --- | --- |
| 47 | EVLWRMSNDSLAFSVPRAHP | -0.248 |
| 48 | LDPDQVHVLASLKIVISECS | < -0.25 |
| 49 | GINLFKVRYMRARTCNAKPD | < -0.25 |
| 50 | KSKSSRIRCGLRGS | < -0.25 |
| 51 | RCGLARRTGYVVVVGARRLG | < -0.25 |
| 52 | VAMTAS | < -0.25 |
| 53 | LVGYRHSILFTFLANRCIRA | < -0.25 |
| 54 | WLNPAGGVPIDQFSLRFIIT | < -0.25 |
| 55 | PSVFSPGDQSRTGGV | < -0.25 |
| 56 | IRIA | < -0.25 |
| 57 | VWERAKSYACFVNWSSKKLL | < -0.25 |
| 58 | EHRACATHIELLVLFQRCTS | < -0.25 |
| 59 | FMVNLSDWCIQDVYGGAMSL | < -0.25 |
| 60 | RDK | < -0.25 |
| 61 | RAVPQMTHTMALYNHRFF | < -0.25 |
| 62 | GSSWGTQSC | < -0.25 |
| 63 | LLLRDVRKAPSRKDAGATYV | < -0.25 |
| 64 | HVYESSICQTSTAHF | < -0.25 |
| 65 | WNGQARPRLRL | < -0.25 |
| 66 | VGVGVLDNKIYVSPQRSRGS | < -0.25 |
| 67 | AVESPCGDKLWFARVI | < -0.25 |
| 68 | ESGELALSISVRVA | < -0.25 |
| 69 | PRYVLFNCLCRHS | < -0.25 |
| 70 | NLTMR | < -0.25 |
| 71 | LKTEIWARDLGPSIFDVQPP | < -0.25 |
| 72 | PNVCSTMGTAIFYARCGIRV | < -0.25 |
| 73 | LLELSRRSKQSRNG | < -0.25 |
| 74 | TKMTIGER | < -0.25 |
| 75 | TDGGSNV | < -0.25 |
| 76 | LRTECGKCSLRISPIVLLRR | < -0.25 |
| 77 | AGKEDFLGLSSRNPVS | < -0.25 |
| 78 | RRNFWFVGPIHLSILASPQH | < -0.25 |
| 79 | SCHRGRPN | < -0.25 |
| 80 | TSQPLGAWNEQQVLDTSRAP | < -0.25 |
| 81 | FSLQSWGGSESRTLEVRLLA | < -0.25 |
| 82 | GCGIGAPAVAVGSHLFKAGV | < -0.25 |
| 83 | SLVEFGFALESGPQALESPV | < -0.25 |
| 84 | VGRTDTMRFGPGLRC | < -0.25 |
| 85 | CQKTFCLKASELGVASAPSC | < -0.25 |
| 86 | DLTYCQTGSSWLINRRLWGW | < -0.25 |
| 87 | FKHQ | < -0.25 |
| 88 | LTRRFGTLGGGVGVSMTWGN | < -0.25 |
| 89 | DRPRGQKQVPG | < -0.25 |
| 90 | VRVP | < -0.25 |
| 91 | IVC | < -0.25 |
| 92 | RTVEIILGREPVKAGTGPPF | < -0.25 |
| 93 | FLMRKK | < -0.25 |
| 94 | PWGIYSYWN | < -0.25 |
| 95 | SYFHCPITRFVRMTLFQFTS | < -0.25 |
| 96 | TAILSPVRNRSLCPLRSLIL | < -0.25 |
| 97 | NGVRAVR | < -0.25 |
| 98 | GILFAALDSPGAELRIVTSC | < -0.25 |
| 99 | RVFCEECRQHRAHPRQNFID | < -0.25 |
| 100 | RVEDRVPPDLRDHVFLAKPS | < -0.25 |
| 101 | YFQGKPHTRK | -0.243 |
| 102 | PQKTKAYGTA | < -0.25 |
| 103 | VELKVIFPLTALCCVNGTWN | < -0.25 |

The listing continues.

Row | Substance | growth estimate
105 | PPLPRGDLDRSIGR | < -0.25
106 | DTTGT | < -0.25
107 | CKPIVGCLRRSMFKQVSRPT | < -0.25
108 | AIGEQPVMGLLPGGSKVFTR | -0.0726
109 | IRCVLQKSSASVNGIRMLQS | < -0.25
110 | ATPAG | < -0.25
111 | FRRSVPRGQSWTLPRDDTRS | < -0.25
112 | GQFRCEMLEVSRYGVHSGAG | < -0.25
113 | RPRHVLGDVGSKVRGTGDPP | < -0.25
114 | GGQKGVGGLNLMVSY | < -0.25
115 | LDERLMVWLR | < -0.25
116 | QSAKDSKAQRWPTPR | < -0.25
117 | VVVS | < -0.25
118 | CDRTMSKRCGDE | < -0.25
119 | IEEGPTTRAPLDNRFRSTRA | < -0.25
120 | DGKAKTP | < -0.25
121 | VSGRGLWAIRNSQPKIGGRA | < -0.25
122 | HTS | 3.64
123 | HILKMGSTVIFAPRPTRWRY | < -0.25
124 | VRV | < -0.25
125 | VRPQVSRTLSQISMQNLNGY | < -0.25
126 | PNSDRIAFKDGRTGKVNIAC | < -0.25
127 | GGMPREQAHGTRFSSVSDAP | < -0.25
128 | ASSELIMVG | < -0.25
129 | RPGQLT | < -0.25
130 | DPFGTKRCRFQVTFLYPTLF | < -0.25

Row | Substance | growth estimate
131 | ESPTLLTDSGIRI | < -0.25
132 | REGRASRRYAQLNY | < -0.25
133 | ATR | < -0.25
134 | LLEIDKLNRL | < -0.25
135 | LQDRSGSFTVDPL | < -0.25
136 | GPWIDMLLRRVVSQFWPQRA | < -0.25
137 | GFTMITIHRIYRWMSCPHLP | < -0.25
138 | RVMSPQQGAGINEVDLADRP | < -0.25
139 | PPSLKYGTSQGDDVRIRKKS | < -0.25
140 | PNYLMLLASQQIALGSTSRA | < -0.25
141 | GCPYSLLGGTDGRKVWCSLT | < -0.25
142 | LLGCL | < -0.25
143 | SYVGHDYNSRTFAERRTVCR | < -0.25
144 | GQDG | < -0.25
145 | TRTTLCTDVQSANIICPDGR | < -0.25
146 | RVAV | -0.209 ± 0.058
147 | FIGDW | < -0.25
148 | SVCCRSLRFPAGPDGGISRQ | < -0.25
149 | KSGGSQAMEPTQWTNTVGQV | < -0.25
150 | GWVVSTG | < -0.25
151 | QPKGGR | < -0.25
152 | STVVVDSSVVTRPGPRVLA | < -0.25
153 | MVKFGRWQTATRQQHVYLCF | < -0.25
154 | LLNPGRPTSDKRKGYGSGPS | < -0.25
155 | LGASPYS | < -0.25
156 | GILSIALRSPPGPRCLKGCR | < -0.25

Row | Substance | growth estimate
157 | QVKKCRKHRG | < -0.25
158 | LVTNIIVWMLGCDSGANTSV | < -0.25
159 | PLPVQSV | < -0.25
160 | LRYMRRRCGPTEKQIDWGVV | < -0.25
161 | GCTPVRRAHGSARLMRRISG | < -0.25
162 | LRLDGGRGKSLHVFREMNLL | < -0.25
163 | RSAREC | < -0.25
164 | RKADDPVGPSGG | < -0.25
165 | CGHVGLIIPRKR | < -0.25
166 | ARIL | < -0.25
167 | PCQIDLYREPR | -0.246
168 | RGLTSLEGLSV | < -0.25
169 | ASAACD | < -0.25
170 | SSH | < -0.25
171 | KRERP | < -0.25
172 | SEGFAIATRINEAAQTLVHV | < -0.25
173 | LRRFCLLMPG | < -0.25
174 | VVGLYWPGKWAGKLTVNFQS | < -0.25
175 | LVGRVVKRFWQIF | < -0.25
176 | MGAQP | < -0.25
177 | GTARFHLSIRHLVSKLRV | < -0.25
178 | RNGEGQYGRAHLWE | < -0.25
179 | IGKSTMGMFAPQLKRTLLYS | < -0.25
180 | IPLALRVLNSSFGGTGEFRR | -0.241
181 | SGKVL | < -0.25
182 | QPGGQSGRFGLAVSQ | < -0.25

Row | Substance | growth estimate
183 | GTRSQTTLIQCKFNYKSGNI | < -0.25
184 | GAPSSK | < -0.25
185 | ACEVPGGSGSLIVVGGLSAP | < -0.25
186 | DRAYSFRRLNGTLEHEMSLD | < -0.25
187 | YYNTRSLLRER | < -0.25
188 | RRSQRRTVER | < -0.25
189 | LDVPCIDEKLVYGQANWAAP | < -0.25
190 | RQGGEFTAIGYLQHYQAYPC | < -0.25
191 | FHSGGKARRRSQTSTDPGVC | < -0.25
192 | NFMTLSLNGA | < -0.25
193 | QWSVLEAG | < -0.25
194 | PRYDPKSELRTPIEVLPPPP | < -0.25
195 | MSKP | < -0.25
196 | SKW | < -0.25
197 | ITYLRVVPLTYLESMSPRVA | < -0.25
198 | RLLPGGSES | < -0.25
199 | DVTDWGRANMKEQRRLKSAV | < -0.25
200 | CKRGA | < -0.25
201 | IWLTRKCIGVFKR | < -0.25
